Results are given in words; binding and its absence hold for the method and conditions named. Some entries that bind do so weakly or less than the wild type.

We go through one molecule from US20200231691A1.

The target in this experiment is T1, murine EpCAM (murine) (UniProt Q99JW5).
T1 sequence: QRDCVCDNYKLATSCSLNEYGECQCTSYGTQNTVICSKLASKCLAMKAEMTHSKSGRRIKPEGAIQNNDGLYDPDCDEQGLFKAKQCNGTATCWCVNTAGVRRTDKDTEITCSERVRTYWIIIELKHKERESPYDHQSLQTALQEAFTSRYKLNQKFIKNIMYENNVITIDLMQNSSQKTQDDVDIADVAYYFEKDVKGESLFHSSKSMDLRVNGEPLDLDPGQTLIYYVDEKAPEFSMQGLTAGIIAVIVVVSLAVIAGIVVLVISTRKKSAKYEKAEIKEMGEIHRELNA
In words: flow cytometry, CT26muEpCAM cells. In general terms: Flow cytometry measures light scatter and fluorescence of single cells or particles in a stream.

B1: monospecific, bivalent anti-murine EpCAM IgG (parental bivalent anti-muEpCAM antibody) (antibody, V domains shown)
VH: EVQLAESGGGLVQPGRSMKLSCAASGFTFSNFPMAWVRQAPTKGLEWVATISTSGGSTYYRDSVKGRFTISRDNAKSTLYLQMNSLRSEDTATYYCTRTLYILRVFYFDYWGQGVMVTVSS
VL: DIQMTQSPASLSASLGETVSIECLASEGISNDLAWYQQKSGKSPQLLIYATSRLQDGVPSRFSGSGSGTRYSLKISGMQPEDEADYFCQQSYKYPWTFGGGTKLELK
Turning to B1, the binding entry was “binds”.
